Assay results: the supplement of paper PMC12578635
Some of the results follow. No stated cut-off is given here; in the data, active = 150% or more and inactive = the rest. Many values rest on one well or one pass, so single values are uncertain.

These compounds were tested on Staphylococcus aureus JE2-lux inside RAW 264.7 macrophages (assay: intracellular bacterial bioluminescence relative to DMSO vehicle; higher = higher intracellular bacterial metabolic activity). Conditions: 10 µM; treatment time 4 h; gentamicin 50 µg/ml.
Protocol: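 RAW 264.7 macrophages infected with bioluminescent MRSA JE2-lux (MOI 100) were dispensed into 384-well plates with 10 µM compound in the presence of 50 µg/ml gentamicin. After 4 h at 37 °C, bacterial bioluminescence (a proxy for intracellular bacterial metabolic activity) and host cell viability (CellTiter-Fluor) were read and normalised to 0.1% DMSO vehicle controls. Single-pass screen of the UNC CICBDD kinase-targeted library (>4,700 compounds).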

Intracellular bacterial bioluminescence, inactive:
O=S(=O)(NCCCc1nc2cc3ccccc3cc2[nH]1)c1ccc2c(c1)OCCO2 114%, CC1CCCN(S(=O)(=O)c2ccc(C(=O)Nc3nc4c(s3)CSc3ccccc3-4)cc2)C1 (stereo not given) 74.9%, COc1ccc(C(=O)CSc2nc3cc4c(cc3cc2C#N)OCO4)cc1 71.5%, Cc1ccc(Oc2ccc(CNC(=O)C(C)N3C(=O)NC(C)(C)C3=O)cc2)cc1 (stereo not given) 95.5%, Cc1nn(C)c(C)c1CNC(=O)c1cc2c(-c3cccs3)nn(-c3ccccc3)c2n1C 10.9%, Cc1ccc(CNC(=O)CCCn2c(=S)[nH]c3ccc(Br)cc3c2=O)cc1 90%, Cc1cc(C)c(NC(=O)CSC2=C(C#N)C(c3ccco3)CC(=O)N2)c(C)c1 (stereo not given) 20.2%, O=C(NCc1ccnc(N2CCCCC2)c1)Nc1cccc(Br)c1 18.2%, Cc1ccc(-c2csc(-n3nc(C)c(CC(=O)N4CCN(c5ccc(F)cc5)CC4)c3O)n2)cc1 94.8%, CCOC(=O)c1[nH]c2ccccc2c1NC(=S)Nc1cccc(C(F)(F)F)c1 77.7%, O=C1c2ccccc2-c2nn(C(=O)c3ccccc3)c3cccc1c23 91.9%, Cc1cc2cc3c(N)c(C(=O)Nc4nonc4C)sc3nc2cc1C 107%, CC(C)(C)n1nc2c(c1NC(=O)COc1ccccc1)CS(=O)(=O)C2 122%, O=C(Nc1ccc(F)cc1)N1CCC(c2nc3ccccc3o2)CC1 95.3%, Cc1ccc(NC(=O)c2cnn3c(=O)c4c([nH]c23)CCC4)cc1 99%, O=C(Nc1ccc(F)c(Cl)c1)C(=O)Nc1ccc2c(c1)OCCO2 85.9%, Cc1ccc(N2C(=O)SC(Nc3ccccc3C(=O)O)C2=O)cc1C (stereo not given) 121%, COc1ccccc1NC(=O)N1CCCC1C(=O)Nc1cccc2ccccc12 (stereo not given) 115%, Cc1ccc2sc(NC(=O)c3ccc(N4C(=O)CCC4=O)cc3)nc2c1C 96.8%, Cc1cc(C)n(-c2cc(N3CCN(c4cc(Cl)ccc4C)CC3)ncn2)n1 102%, Cc1cc(NC(=O)c2cccc(C(F)(F)F)c2)nc2c1c(=O)oc1ccccc12 99.3%, CCCn1c(SCC(=O)Nc2ccccc2CC)nc2c(oc3ccccc32)c1=O 96.3%, CCOc1ccc2cc(C#N)c(SCC(=O)Nc3ccccc3C(F)(F)F)nc2c1 91.9%, COc1cc(C(=O)Oc2ccc3oc(=O)cc(-c4cc5ccccc5o4)c3c2)cc(OC)c1OC 126%, CCOC(=O)c1sc(NC(=O)CSc2nc3c(=O)n(C)c(=O)n(C)c3n2C)nc1C 92.8%
